Data taken from article PMC6896144.

Target: S127A-FLAG (UniProt P46937)
Experiment: co-IP; HCT116 co-transfected with DUSP10-V5 and a YAP-FLAG plasmid. Cells were cross-linked with 2 mM DSP for 30 min, then lysed in RIPA buffer. Anti-FLAG (or normal IgG) and protein A/G agarose at 4 °C, then immunoblot.

binding: binds
B1: DUSP10-WT-V5 (enzyme, UniProt Q9Y6W6 1-482)
chain: MPPSPLDDRVVVALSRPVRPQDLNLCLDSSYLGSANPGSNSHPPVIATTVVSLKAANLTYMPSSSGSARSLNCGCSSASCCTVATYDKDNQAQTQAIAAGTTTTAIGTSTTCPANQMVNNNENTGSLSPSSGVGSPVSGTPKQLASIKIIYPNDLAKKMTKCSKSHLPSQGPVIIDCRPFMEYNKSHIQGAVHINCADKISRRRLQQGKITVLDLISCREGKDSFKRIFSKEIIVYDENTNEPSRVMPSQPLHIVLESLKREGKEPLVLKGGLSSFKQNHENLCDNSLQLQECREVGGGASAASSLLPQPIPTTPDIENAELTPILPFLFLGNEQDAQDLDTMQRLNIGYVINVTTHLPLYHYEKGLFNYKRLPATDSNKQNLRQYFEEAFEFIEEAHQCGKGLLIHCQAGVSRSATIVIAYLMKHTRMTMTDAYKFVKGKRPIISPNLNFMGQLLEFEEDLNNGVTPRILTPKLMGVETVV

These are yes or no findings as the source states them, for the method shown. Binding seen in cells or lysates may run through a third protein. Binding can be weak; no strength is given. Where a sequence is shown, tags or fusion partners need not be part of it.
